Data: publication PMC10163288
Some of the results follow.

B1: il10ra_site1_normal_mot_HHH_b1_06994_000000193_0001_40_55_H_._HHH_b1_01501_0001_0000300017_0000002_0 (protein)
chain: SSSSDQLEELVRAALRFVEQAYEAGDPAWEHRVRALLQALRREGDEELVEEVEELLEKLRSSSSS
B2: il10ra_site1_normal_mot_HHH_b2_00943_af2_000000149_0001_1_17_H_._HHH_b1_08613_af2_0001_0000500010_0000002_0_af2pred_0001 (protein)
chain: SSSSSSEAKLLFEAIRLVAEVIKHGDPELEEEAEEFIREVIKKVKDPHAQEALEYLLENVSSSSS
B3: il10ra_site1_normal_mot_8756ee2cf497b5429c717dfc0c0bcfd6_0001_000000186_0001_1_13_H_._HHH_b1_01406_af2_0001_0000200006_0000002_0 (protein)
chain: SSSSSTQALELLREVVRLHAEGNPEEAEKLIEEAEKVAEEEGNDVILVQLEYLLRHIERSSSSSS
B4: il10ra_site1_normal_mot_HHH_b2_05323_000000159_0001_1_18_H_._HHH_b2_05518_af2_0001_0000100006_0000002_0 (protein)
chain: SSSSDEEQQELLELLRELFELALRGDEEEARRLAEELLELARELNDERVFRIVKDQQEVLSSSSS
B5: il10ra_site1_normal_mot_HHH_b1_07466_000000214_0001_1_19_H_._HHH_b1_01142_0001_0000100007_0000001_0 (protein)
chain: SSSSSDVEELEELVEELIEELDDPRDRRKLELTLRFARALLENGDPEAARRLLRAVLEALSSSSS
B6: il10ra_site1_normal_mot_HHH_b1_05937_af2_000000262_0001_20_37_H_._HHH_b1_08598_0001_0000200009_0000001_0 (protein)
chain: SSSSSSSDWLELVIEALRLLFKKRNAELLQELHRLAKEIARHGDPELEKELEEFLEEISSSSSSS
B7: il10ra_site1_sap_26_mot_674797ffa33fc4f31d963a7257083862_0001_000000202_0001_1_12_H_._HHH_b2_05362_0001_0000600049_0000001_0_0001 (protein)
chain: SSSSSEESEEFTEEVKEELERLLKEGDPDEAFKLLEEAIKFLLELGDDEAAHRLVELFQRTSSSS
B8: il10ra_site1_sap_16_mot_HHH_b1_03328_af2_000000129_0001_1_21_H_._963dea14d5f61e40fbb13539fee36e1a_0001_0001_0000100003_0000002_0_0001 (protein)
chain: SSSSDRAVEEIWRLLREALRIDDLEEARELVEEAQELAEERNNRVMRKVIEFLLEQLRRQSSSSS
B9: il10ra_site1_sap_8_mot_HHH_b2_03038_000000109_0001_1_20_H_._HHH_b1_05254_0001_0000400044_0000001_0_0001_af2pred_0001 (protein)
chain: SSSSSEEQERINELLREAAELLDEGDPEEARELVEEALELAEEAGSVVAAVAARFLLKLINSSSS
B10: il10ra_site1_sap_13_mot_8756ee2cf497b5429c717dfc0c0bcfd6_0001_000000186_0001_1_13_H_._HHH_b1_01047_0001_0000200013_0000001_0_0001 (protein)
chain: SSSSDEEERRVEELFEEAEELYEEGDPREAARVLQEAVRIALEAGNEELLQAIWRLVRELKSSSS
B11: il10ra_site1_normal_mot_HHH_b2_01999_000000006_0001_1_18_H_._HHH_b1_02372_0001_0000200023_0000001_0 (protein)
chain: SSSSDVEERASEVAIEVLRIAIRLSDPEVFQEVYELFRRIIREGDPELLEELEELLERLRSSSSS
B12: il10ra_site1_sap_20_mot_HHH_b2_00441_000000147_0001_1_18_H_._HHH_b2_06532_0001_0000500051_0000002_0_0001 (protein)
chain: SSSSSDEEVWELLREALELLANGNPEEAEEVVEEAERLAKEAGSRVMRLQVEFLLRAIRLSSSSS
B13: il10ra_site1_normal_mot_HHH_b2_06857_af2_000000179_0001_42_54_H_._HHH_b2_07752_af2_0001_0000500038_0000002_0 (protein)
chain: SSSSNELHEELYELIRKAAELARNGNPEEAEKVLEEARKIAEELNNELAEFQIRFLERLLSSSSS
B14: il10ra_site1_normal_mot_HHH_b1_00999_000000080_0001_41_55_H_._HHH_b2_01363_af2_0001_0000200003_0000001_0 (protein)
chain: SSSSSSEEVEERVEELLEEAKHIEDPREAMRVLLEALQIAIENNNEELLQEVWRIIKELGSSSSS
B15: il10ra_site1_sap_19_mot_HHH_b1_04704_af2_000000076_0001_43_57_H_._HHH_b2_05647_0001_0000200009_0000001_0_0001 (protein)
chain: SSSSEEAYEIVHEANRQAIELAEEGDPEEARKLLEEALELLEEAGNFSAVFALRHSLRRQVSSSS
B16: il10ra_site1_normal_mot_HHH_b2_03220_af2_000000223_0001_23_40_H_._HHH_b2_03020_af2_0001_0000100003_0000001_0 (protein)
chain: SSSSSSDEREEVWELLRKALHIEDEEEARRIVEKAEELAEELGSELLVIQARFLLRNLSSSSSSS
B17: il10ra_site1_sap_17_mot_HHH_b1_00999_000000080_0001_41_55_H_._HHH_b2_05434_0001_0000300025_0000001_0_0001 (protein)
chain: SSSSDEEVRELLREAEELVEEGDPEEAAKLLQEAVQFAIHLKDAELLREVWEVVRRIAERRSSSS
B18: il10ra_site1_sap_20_mot_HHH_b1_06804_000000054_0001_40_54_H_._HHH_b2_07125_0001_0000200015_0000001_0_0001 (protein)
chain: SSSSSSSEAVHLSLEAFRLALRGNPEEAEKVLEEALEIAEEENDPIAEIIEDLLRAIGSSSSSSS
B19: il10ra_site1_sap_16_mot_HHH_b2_00984_000000042_0001_1_20_H_._4c4ac6cabe4c261757e68d3976ab26f5_0001_af2_0001_0000600027_0000001_0_0001_af2pred_0001 (protein)
chain: SSSSDDDERFIELTLRFAKWLIEQGDEEAAKFFLKAAIEQAERLNDEEILEELERLLQELSSSSS
B20: il10ra_site1_sap_22_mot_HHH_b1_06789_af2_000000041_0001_1_20_H_._HHH_b2_01051_af2_0001_0000500011_0000001_0_0001 (protein)
chain: SSSSDELERLLEELEEAVEEGDEELVLRLQHRVLRLAIQLSDEEVFQAVWRLYKEFAKRRSSSSS
B21: il10ra_site1_normal_mot_HHH_b1_05370_000000138_0001_1_16_H_._HHH_b1_04757_af2_0001_0000100005_0000001_0_af2pred_dldesign_0_af2pred (protein)
chain: SSSSSEAEELFEKTTKELKALLAAGKVDEAYKLLKEAIEKLVELNAPELARALANLFLEGSSSSS
B22: il10ra_site1_sap_17_mot_HHH_b2_02354_af2_000000157_0001_40_56_H_._HHH_b1_04654_af2_0001_0000300021_0000001_0_0001 (protein)
chain: SSSSDEEIREEVERLLEEAKHIEDAQEAYELLKRAIELAIELGDPELERLVHEVIREWLKKSSSS
B23: il10ra_site1_sap_15_mot_bc09c72237e61002eddc20b9c710af39_0001_1_000000219_0001_36_50_H_._HHH_b1_00619_af2_0001_0000100004_0000001_0_0001 (protein)
chain: SSSSSLSQRVIETLREVARLINEGNPEEAEELLERLLEEVEKAGNRLLEVQVRFMLRLERSSSSS
B24: il10ra_site1_sap_23_mot_HHH_b1_07211_af2_000000161_0001_24_40_H_._HHH_b2_05770_af2_0001_0000200004_0000001_0_0001 (protein)
chain: SSSSSDSVVRLIAEAVRAAMHKGDREALQELWELVHKLGNGITSEEEAQEIAERILEELGSSSSS
B25: il10ra_site1_sap_25_mot_HHH_b1_05937_af2_000000262_0001_20_37_H_._HHH_b1_06457_af2_0001_0000100002_0000001_0_0001 (protein)
chain: SSSSQEWFEEVKKLIELIIEAQREGDEELVKELLERLRELIEEAGSWSLRHDLKMLEEMLNSSSS
B26: il10ra_site1_sap_20_mot_HHH_b2_06321_af2_000000133_0001_42_55_H_._HHH_b1_07996_af2_0001_0000400031_0000002_0_0001 (protein)
chain: SSSSDREEAEELFQLVWEAIKKGDKELLEKLEEEVEELLKETGDPNVRALLELIRLALEVLSSSS
B27: il10ra_site1_normal_mot_HHH_b2_00984_000000042_0001_1_20_H_._HHH_b2_06760_af2_0001_0000300021_0000001_0 (protein)
chain: SSSSDEEREELEELIRELRELLENGDPERALRVAQEAIRLAFRSNDPELLQELWEVIKRHFSSSS
B28: il10ra_site1_normal_mot_HHH_b2_02053_af2_000000006_0001_3_19_H_._HHH_b1_04635_af2_0001_0000400020_0000002_0 (protein)
chain: SSSSDEATEEVYELLREALELRAQGNPEEAEEVLRRAEELAEEKNNRVLLIAVEFLLRELSSSSS
B29: il10ra_site1_sap_19_mot_HHH_b1_01821_000000158_0001_23_39_H_._HHH_b2_02252_af2_0001_0000200016_0000002_0_0001 (protein)
chain: SSSSTEELYKLLRRIVELLHEGNVEEAKELIEEVKELAEENNDQLFLKNVEHLERDLRRLGSSSS
B30: il10ra_site1_normal_mot_HHH_b1_01779_000000096_0001_43_57_H_._HHH_b2_08219_0001_0000100005_0000001_0_af2pred_0001 (protein)
chain: SSSSNKEEAERSVRLLLELAKRLEDPERARAALRDARRTAEYVNDPELEELVEEVEREVLSSSSS
B31: il10ra_site1_normal_mot_HHH_b1_02062_000000185_0001_1_20_H_._HHH_b2_01431_0001_0000400048_0000001_0_af2pred_0001 (protein)
chain: SSSSEEAYKLSREAAELLADGNPEEALRLLEEAEEIAEEKGNLAILHALEFLYEHAKRLLESSSS
B32: il10ra_site1_normal_mot_HHH_b1_05185_000000011_0001_22_39_H_._HHH_b2_07609_af2_0001_0000100009_0000001_0_af2pred_0001 (protein)
chain: SSSSNELAKRAARFLVKAAKQLEDPEKVRLALRIALHAAKEANDEELQEEIERLLEELEKSSSSS
B33: il10ra_site1_sap_18_mot_HHH_b2_03913_af2_000000094_0001_1_19_H_._HHH_b2_01317_0001_0000200014_0000001_0_0001 (protein)
chain: SSSSSSDLEELLEELEELVEEGDSERALRLAIELIRLAFQRRDPEILRAVWELVKRLDSSSSSSS
B34: il10ra_site1_sap_23_mot_HHH_b2_03220_af2_000000223_0001_23_40_H_._HHH_b1_03860_0001_0000400043_0000001_0_0001_af2pred_0001 (protein)
chain: SSSSDAEEEVEELLKELEELVKRNDEEERVEVAFLIARLIQELGDPELAEELSRILVEFLQSSSS
B35: il10ra_site1_normal_mot_HHH_b2_01235_000000294_0001_1_18_H_._HHH_b1_05611_0001_0000600040_0000001_0_af2pred_0001 (protein)
chain: SSSSDVTERVLELLREALKLLKDGNPEEAREVLEEAEELAEEGNDELLRHLIEFAQEEIDSSSSS
B36: il10ra_site1_sap_8_mot_HHH_b1_07527_000000076_0001_1_15_H_._HHH_b2_05696_0001_0000500030_0000002_0_0001 (protein)
chain: SSDRAARYLLRQATRAARLAIENNDPERAEHAVENLRELAEQHNDEEAKEIAEELREQVEELKSS
B37: il10ra_site1_sap_23_mot_3fe176d385def974ec4a624ed76b8be1_0001_af2_000000291_0001_1_12_H_._HHH_b1_01093_0001_0000300041_0000002_0_0001 (protein)
chain: SSSSSSDEEEVEELLEEAKEIEDREELVEVLFRALEIAIQAQDPELLRLVWKVFKKLVSSSSSSS

The binders below were run against il10ra, Q13651 (assay: yeast display titration).

Apparent Kd, inactive:
B1 no binding seen
B2 no binding seen
B3 no binding seen
B4 no binding seen
B5 no binding seen
B6 no binding seen
B7 no binding seen
B8 no binding seen
B9 no binding seen
B10 no binding seen
B11 no binding seen
B12 no binding seen
B13 no binding seen
B14 no binding seen
B15 no binding seen
B16 no binding seen
B17 no binding seen
B18 no binding seen
B19 no binding seen
B20 no binding seen
B21 no binding seen
B22 no binding seen
B23 no binding seen
B24 no binding seen
B25 no binding seen
B26 no binding seen
B27 no binding seen
B28 no binding seen
B29 no binding seen
B30 no binding seen
B31 no binding seen
B32 > 959 nM
B33 no binding seen
B34 no binding seen
B35 no binding seen
B36 no binding seen
B37 > 1500 nM

Eight neighbouring entries from above, quoted:
Apparent Kd, inactive:
B21 no binding seen
B22 no binding seen
B23 no binding seen
B24 no binding seen
B25 no binding seen
B26 no binding seen
B27 no binding seen
B28 no binding seen
